Counter-ions that a name gives are not always drawn. The list shows a part of the results. The numbers are fractions of the control, whatever unit the source prints. Most values lie at the level of the controls, where differences are scatter.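 MIN6 is a mouse insulinoma beta-cell line that stably carries a lentiviral reporter in which the Pdx1 and Ins1 promoters each drive a nucleus-targeted fluorescent protein; cells were counted by automated imaging with a Hoechst nuclear stain. In the screen, a drug was a possible hit when its Ins1 promoter readout lay beyond two median absolute deviations from the DMSO controls while Pdx1 activity stayed near normal.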
The compounds below were run on MIN6 (assay: % Pdx1+ Ins1+ (double-positive, mature) cells relative to DMSO control (fold of DMSO control); higher = more mature Ins1 promoter-active cells). Conditions: 8.5 µM; 48 h; glucose 5 mM.

| Compound | % Pdx1+ Ins1+ |
| --- | --- |
| CCN1C(=O)NC(c2ccccc2)C1=O (configuration not stated) [Ethotoin] | 0.894 |
| CN1CCC(=C2c3ccccc3CC(=O)c3sccc32)CC1 [Ketotifen fumarate] | 1.01 |
| COc1ccccc1N1CCN(CC(O)COc2cccc3ccccc23)CC1 (configuration not stated) [Naftopidil dihydrochloride] | 0.862 |
| CN1CCCC(CC2c3ccccc3Sc3ccccc32)C1 (configuration not stated) [Metixene hydrochloride] | 0.801 |
| CC(C)(Sc1cc(C(C)(C)C)c(O)c(C(C)(C)C)c1)Sc1cc(C(C)(C)C)c(O)c(C(C)(C)C)c1 [Probucol] | 1.03 |
| Cn1ccnc1S [Methimazole] | 0.813 |
| Nc1c(Br)cc(Br)cc1CN[C@H]1CC[C@H](O)CC1 [Ambroxol hydrochloride] | 0.881 |
| CC(C)(Oc1ccc(Cl)cc1)C(=O)O [Clofibric acid] | 0.907 |
| CN(C)CC/C=C1\c2ccccc2CSc2ccccc21 [Dosulepin hydrochloride] | 0.964 |
| CO[C@H]1C[C@H](O[C@H]2[C@H](C)[C@@H](O[C@@H]3O[C@H](C)C[C@H](N(C)C)[C@H]3OC(C)=O)[C@@H](C)C[C@@]3(CO3)C(=O)[C@H](C)[C@@H](OC(C)=O)[C@@H](C)[C@@H](C)OC(=O)[C@@H]2C)O[C@@H](C)[C@@H]1OC(C)=O [Troleandomycin] | 0.867 |
| COc1ccc(-c2ccc(=N)n(CCCC(=O)O)n2)cc1 [Gabazine] | 1.02 |
| Cc1cc(C(=O)NNCc2ccccc2)no1 [Isocarboxazid] | 0.804 |
| CN1C(C(=O)Nc2ccccn2)=C(O)c2sccc2S1(=O)=O [Tenoxicam] | 0.957 |
| Cc1ncc([N+](=O)[O-])n1CC(O)CCl (configuration not stated) [Ornidazole] | 1.06 |
| COc1cc(/C=C/C(=O)N2CCC=CC2=O)cc(OC)c1OC [Piperlongumine] | 0.853 |
| C=C[C@H]1CN2CC[C@H]1C[C@@H]2[C@@H](O)c1ccnc2ccc(OC)cc12 [Quinidine hydrochloride monohydrate] | 1.03 |
| C[C@]12CC[C@H]3C(=CCc4cc(O)ccc43)[C@@H]1CCC2=O [Equilin] | 0.899 |
| CN(C)CCC=C1c2ccccc2CCc2ccccc21 [Amitryptiline hydrochloride] | 1.17 |
| Cc1[nH]c(=O)c(C#N)cc1-c1ccncc1 [Milrinone] | 1.07 |
| Cn1c(=O)c2[nH]cnc2n(C)c1=O [Aminophylline] | 0.992 |
| CCN(CC)CCOC(=O)C(c1ccccc1)C1CCCCC1 (configuration not stated) [Drofenine hydrochloride] | 0.844 |
| COc1cc(Cc2cnc(N)nc2N)cc(OC)c1OC [Trimethoprim] | 1.1 |
| CO[C@@]1(NC(=O)Cc2cccs2)C(=O)N2C(C(=O)O)=C(COC(N)=O)CS[C@@H]21 [Cefoxitin sodium salt] | 1.01 |
| CC(=O)c1ccc2c(c1)N(CCCN1CCC(CCO)CC1)c1ccccc1S2 [Piperacetazine] | 0.928 |

Filtered by structure, the entries above containing a thiophene ring, fused or not

| Compound | % Pdx1+ Ins1+ |
| --- | --- |
| CN1CCC(=C2c3ccccc3CC(=O)c3sccc32)CC1 [Ketotifen fumarate] | 1.01 |
| CN1C(C(=O)Nc2ccccn2)=C(O)c2sccc2S1(=O)=O [Tenoxicam] | 0.957 |
| CO[C@@]1(NC(=O)Cc2cccs2)C(=O)N2C(C(=O)O)=C(COC(N)=O)CS[C@@H]21 [Cefoxitin sodium salt] | 1.01 |

The list continues:

| Compound | % Pdx1+ Ins1+ |
| --- | --- |
| O=C(CCCN1CCC(O)(c2ccc(Br)cc2)CC1)c1ccc(F)cc1 [Bromperidol] | 0.919 |
| CCCCC(CC)CN1CN(CC(CC)CCCC)CC(C)(N)C1 (configuration not stated) [Hexetidine] | 0.84 |
| CC(C)(C)C(=O)OCOC(=O)[C@@H]1N2C(=O)[C@@H](NC(=O)[C@H](N)c3ccccc3)[C@H]2SC1(C)C [Pivampicillin] | 1 |
| O=C1NCN(c2ccccc2)C12CCN(CCCC(c1ccc(F)cc1)c1ccc(F)cc1)CC2 [Fluspirilen] | 0.763 |
| N=C(N)NC(=O)c1nc(Cl)c(N)nc1N [Amiloride hydrochloride dihydrate] | 1.07 |
| CCCCOC(=O)c1ccc(N)cc1 [Butamben] | 0.876 |
| NS(=O)(=O)c1cc2c(cc1Cl)N=CNS2(=O)=O [Chlorothiazide] | 1.03 |
| CN[C@H](CC(C)C)C(=O)N[C@H]1C(=O)N[C@@H](CC(N)=O)C(=O)N[C@H]2C(=O)N[C@H]3C(=O)N[C@H](C(=O)N[C@H](C(=O)O)c4cc(O)cc(O)c4-c4cc3ccc4O)[C@H](O)c3ccc(c(Cl)c3)Oc3cc2cc(c3O[C@@H]2O[C@H](CO)[C@@H](O)[C@H](O)[C@H]2O[C@H]2C[C@](C)(N)[C@H](O)[C@H](C)O2)Oc2ccc(cc2Cl)[C@H]1O [Vancomycin hydrochloride] | 1.03 |
| CC(C)COCC(CN(Cc1ccccc1)c1ccccc1)N1CCCC1 (configuration not stated) [Bepridil hydrochloride] | 1 |
| NC(=O)c1ncn([C@@H]2O[C@H](CO)[C@@H](O)[C@H]2O)n1 [Ribavirin] | 0.885 |
| CCOC(=O)[C@H](CCc1ccccc1)N[C@@H](C)C(=O)N1[C@H](C(=O)O)C[C@@H]2CCC[C@@H]21 [Ramipril] | 0.896 |
| CCOc1ccc2c(c1)C(C)=CC(C)(C)N2 [Ethoxyquin] | 0.777 |
| NS(=O)(=O)c1cc(C(=O)O)c(NCc2ccco2)cc1Cl [Furosemide] | 0.847 |
| Cc1cc(C2CCCCC2)n(O)c(=O)c1 [Ciclopirox ethanolamine] | 0.712 |
| O=C(c1ccccc1)c1ccc2n1CCC2C(=O)O (configuration not stated) [Ketorolac tromethamine] | 0.823 |
| CCOC(=O)[C@@](C)(N)Cc1ccc(O)c(O)c1 [Methyldopate hydrochloride] | 0.755 |
| CCN[C@@H]1C[C@H](N)[C@@H](O[C@H]2OC(CN)=CC[C@H]2N)[C@H](O)[C@H]1O[C@H]1OC[C@](C)(O)[C@H](NC)[C@H]1O [Netilmicin sulfate] | 1.01 |
| CN1Cc2c(N)cccc2C(c2ccccc2)C1 (configuration not stated) [Nomifensine maleate] | 1.08 |
| c1ccc(CNc2ncnc3nc[nH]c23)cc1 [Aminopurine, 6-benzyl] | 1.02 |
| COc1ccccc1OCC(O)COC(N)=O (configuration not stated) [Methocarbamol] | 1.15 |
| Cc1cc(N)c2ccccc2[n+]1CCCCCCCCCC[n+]1c(C)cc(N)c2ccccc21 [Dequalinium dichloride] | 0.0402 |
| N=C(N)NCCN1CCCCCCC1 [Guanethidine sulfate] | 1.09 |
| C#C[C@]1(O)CC[C@H]2[C@@H]3CCC4=CC(=O)CC[C@@H]4[C@H]3CC[C@@]21CC [Norgestrel-(-)-D] | 0.945 |

— the supplement of paper PMC4807443
